# Measurements published in the supplement of paper PMC8728848.
# The list shows a part of the results.
# Columns and labels:
# Assay in all cases: glycan array binding signal (z-score within array); higher = stronger binding
# Settings in all cases: glycan notation: IUPAC condensed, linker removed
# GlcNAc(b1-3)Gal(b1-4)Glc = target: GlcNAc(b1-3)Gal(b1-4)Glc
# Summary of the method: (§1)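 Glycan array data were curated from 3228 arrays in the Consortium for Functional Glycomics database and kept only where the protein sequence was available. Glycan names were converted to IUPAC-condensed notation, and columns mapping to the same glycan were averaged. The binding signal is a within-array Z-score, averaged across arrays of the same protein sequence at different concentrations or buffers and across linkers. Negative Z-scores can be read as non-binding.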
# [1] = target: GlcNAc(b1-3)Gal(b1-4)GlcNAc
# Summary of the method: as §1
# [2] = target: GlcNAc(b1-3)Gal(b1-4)GlcNAc(b1-2)Man(a1-3)[GlcNAc(b1-3)Gal(b1-4)GlcNAc(b1-2)Man(a1-6)]Man(b1-4)GlcNAc(b1-4)GlcNAc
# Summary of the method: as §1
# [3] = target: GlcNAc(b1-3)Gal(b1-4)GlcNAc(b1-2)Man(a1-3)[GlcNAc(b1-3)Gal(b1-4)GlcNAc(b1-2)Man(a1-6)]Man(b1-4)GlcNAc(b1-4)[Fuc(a1-6)]GlcNAc
# Summary of the method: as §1
# [4] = target: GlcNAc(b1-3)Gal(b1-4)GlcNAc(b1-2)[GlcNAc(b1-3)Gal(b1-4)GlcNAc(b1-6)]Man(a1-6)[GlcNAc(b1-3)Gal(b1-4)GlcNAc(b1-2)Man(a1-3)]Man(b1-4)GlcNAc(b1-4)GlcNAc
# Summary of the method: as §1
# [5] = target: GlcNAc(b1-3)Gal(b1-4)GlcNAc(b1-3)Gal(b1-4)GlcNAc
# Summary of the method: as §1
# [6] = target: GlcNAc(b1-3)Gal(b1-4)GlcNAc(b1-3)Gal(b1-4)GlcNAc(b1-2)Man(a1-3)[GlcNAc(b1-3)Gal(b1-4)GlcNAc(b1-3)Gal(b1-4)GlcNAc(b1-2)Man(a1-6)]Man(b1-4)GlcNAc(b1-4)GlcNAc
# Summary of the method: as §1
# [7] = target: GlcNAc(b1-3)Gal(b1-4)GlcNAc(b1-3)Gal(b1-4)GlcNAc(b1-2)Man(a1-3)[GlcNAc(b1-3)Gal(b1-4)GlcNAc(b1-3)Gal(b1-4)GlcNAc(b1-2)Man(a1-6)]Man(b1-4)GlcNAc(b1-4)[Fuc(a1-6)]GlcNAc
# Summary of the method: as §1
# [8] = target: GlcNAc(b1-3)Gal(b1-4)GlcNAc(b1-3)Gal(b1-4)GlcNAc(b1-2)[GlcNAc(b1-3)Gal(b1-4)GlcNAc(b1-3)Gal(b1-4)GlcNAc(b1-6)]Man(a1-6)[GlcNAc(b1-3)Gal(b1-4)GlcNAc(b1-3)Gal(b1-4)GlcNAc(b1-2)Man(a1-3)]Man(b1-4)GlcNAc(b1-4)[Fuc(a1-6)]GlcNAc
# Summary of the method: as §1
# [9] = target: GlcNAc(b1-3)Gal(b1-4)GlcNAc(b1-3)Gal(b1-4)GlcNAc(b1-3)Gal(b1-4)GlcNAc(b1-2)Man(a1-3)[GlcNAc(b1-3)Gal(b1-4)GlcNAc(b1-3)Gal(b1-4)GlcNAc(b1-3)Gal(b1-4)GlcNAc(b1-2)Man(a1-6)]Man(b1-4)GlcNAc(b1-4)GlcNAc
# Summary of the method: as §1
# [10] = target: GlcNAc(b1-3)Gal(b1-4)GlcNAc(b1-3)Gal(b1-4)GlcNAc(b1-3)Gal(b1-4)GlcNAc(b1-2)Man(a1-3)[GlcNAc(b1-3)Gal(b1-4)GlcNAc(b1-3)Gal(b1-4)GlcNAc(b1-3)Gal(b1-4)GlcNAc(b1-2)Man(a1-6)]Man(b1-4)GlcNAc(b1-4)[Fuc(a1-6)]GlcNAc
# Summary of the method: as §1
# [11] = target: GlcNAc(b1-3)Gal(b1-4)GlcNAc(b1-3)Gal(b1-4)GlcNAc(b1-3)Gal(b1-4)GlcNAc(b1-2)[GlcNAc(b1-3)Gal(b1-4)GlcNAc(b1-3)Gal(b1-4)GlcNAc(b1-3)Gal(b1-4)GlcNAc(b1-6)]Man(a1-6)[GlcNAc(b1-3)Gal(b1-4)GlcNAc(b1-3)Gal(b1-4)GlcNAc(b1-3)Gal(b1-4)GlcNAc(b1-2)Man(a1-3)]Man(b1-4)GlcNAc(b1-4)[Fuc(a1-6)]GlcNAc
# Summary of the method: as §1
# [12] = target: GlcNAc(b1-3)Gal(b1-4)GlcNAc(b1-3)Gal(b1-4)GlcNAc(b1-3)Gal(b1-4)GlcNAc(b1-3)Gal(b1-4)GlcNAc(b1-2)Man(a1-3)[GlcNAc(b1-3)Gal(b1-4)GlcNAc(b1-3)Gal(b1-4)GlcNAc(b1-3)Gal(b1-4)GlcNAc(b1-3)Gal(b1-4)GlcNAc(b1-2)Man(a1-6)]Man(b1-4)GlcNAc(b1-4)GlcNAc
# Summary of the method: as §1
# [13] = target: GlcNAc(b1-3)Gal(b1-4)GlcNAc(b1-3)Gal(b1-4)GlcNAc(b1-3)Gal(b1-4)GlcNAc(b1-3)Gal(b1-4)GlcNAc(b1-2)Man(a1-3)[GlcNAc(b1-3)Gal(b1-4)GlcNAc(b1-3)Gal(b1-4)GlcNAc(b1-3)Gal(b1-4)GlcNAc(b1-3)Gal(b1-4)GlcNAc(b1-2)Man(a1-6)]Man(b1-4)GlcNAc(b1-4)[Fuc(a1-6)]GlcNAc
# Summary of the method: as §1
# [14] = target: GlcNAc(b1-3)Gal(b1-4)GlcNAc(b1-3)Gal(b1-4)GlcNAc(b1-3)Gal(b1-4)GlcNAc(b1-3)Gal(b1-4)GlcNAc(b1-2)[GlcNAc(b1-3)Gal(b1-4)GlcNAc(b1-3)Gal(b1-4)GlcNAc(b1-3)Gal(b1-4)GlcNAc(b1-3)Gal(b1-4)GlcNAc(b1-6)]Man(a1-6)[GlcNAc(b1-3)Gal(b1-4)GlcNAc(b1-3)Gal(b1-4)GlcNAc(b1-3)Gal(b1-4)GlcNAc(b1-3)Gal(b1-4)GlcNAc(b1-2)Man(a1-3)]Man(b1-4)GlcNAc(b1-4)[Fuc(a1-6)]GlcNAc
# Summary of the method: as §1
# [15] = target: GlcNAc(b1-3)Gal(b1-4)GlcNAc(b1-3)Gal(b1-4)GlcNAc(b1-3)GalNAc
# Summary of the method: as §1
# [16] = target: GlcNAc(b1-3)Gal(b1-4)GlcNAc(b1-3)GalNAc
# Summary of the method: as §1
# [17] = target: GlcNAc(b1-3)Gal(b1-4)GlcNAc(b1-3)[GlcNAc(b1-3)Gal(b1-4)GlcNAc(b1-3)]GalNAc
# Summary of the method: as §1
# [18] = target: GlcNAc(b1-3)Gal(b1-4)GlcNAc(b1-6)[Gal(b1-3)]GalNAc
# Summary of the method: as §1
# [19] = target: GlcNAc(b1-3)Gal(b1-4)GlcNAc(b1-6)[GlcNAc(b1-3)Gal(b1-3)]GalNAc
# Summary of the method: as §1
# [20] = target: GlcNAc(b1-3)Gal(b1-4)GlcNAc(b1-6)[GlcNAc(b1-3)]Gal(b1-4)GlcNAc
# Summary of the method: as §1
# GlcNAc(b1-3)GalNAc = target: GlcNAc(b1-3)GalNAc
# Summary of the method: as §1
# GlcNAc(b1-3)Man = target: GlcNAc(b1-3)Man
# Summary of the method: as §1
# [21] = target: GlcNAc(b1-3)[GlcNAc(b1-4)][GlcNAc(b1-6)]GlcNAc
# Summary of the method: as §1
# [22] = target: GlcNAc(b1-3)[GlcNAc(b1-6)]Gal(b1-4)GlcNAc
# Summary of the method: as §1
# [23] = target: GlcNAc(b1-3)[GlcNAc(b1-6)]GalNAc
# Summary of the method: as §1
# [24] = target: GlcNAc(b1-4)Gal(b1-4)GlcNAc
# Summary of the method: as §1
# GlcNAc(b1-4)GlcNAc = target: GlcNAc(b1-4)GlcNAc
# Summary of the method: as §1
# [25] = target: GlcNAc(b1-4)GlcNAc(b1-4)GlcNAc
# Summary of the method: as §1
# [26] = target: GlcNAc(b1-4)GlcNAc(b1-4)GlcNAc(b1-4)GlcNAc(b1-4)GlcNAc
# Summary of the method: as §1
# [27] = target: GlcNAc(b1-4)GlcNAc(b1-4)GlcNAc(b1-4)GlcNAc(b1-4)GlcNAc(b1-4)GlcNAc
# Summary of the method: as §1
# [28] = target: GlcNAc(b1-4)[GlcNAc(b1-6)]GalNAc
# Summary of the method: as §1
# [29] = target: GlcNAc(b1-6)Gal(b1-4)GlcNAc
# Summary of the method: as §1
# GlcNAc(b1-6)GalNAc = target: GlcNAc(b1-6)GalNAc
# Summary of the method: as §1
# [30] = target: GlcNAc6S(b1-3)Gal(b1-4)GlcNAc
# Summary of the method: as §1
# Kdn(a2-3)Gal(b1-3)GalNAc = target: Kdn(a2-3)Gal(b1-3)GalNAc
# Summary of the method: as §1
# Kdn(a2-3)Gal(b1-3)GlcNAc = target: Kdn(a2-3)Gal(b1-3)GlcNAc
# Summary of the method: as §1
binder,measurement,setting,value
PX14343E-bfa-545-24-545 (Bacteroides fragilis) (protein) LDRYPQEELSDGSFWKTPDDANKVVSDLYGYLSTWDQDNDINSDNATMGIKWAAGNVSKGIYDPADQGWSGDYANVRQCNLILSKIDEIPDYPEADKTKALGQVYFFRAYIYFNLIRSFGDVPYIDKPLDLKDMEGITRMPRAEVYEKIMADFDKAIAALPTEWGASDYGRVTKGAAMAMKARAALYYGNWDTAATEAKNVMDLGLYELYDKDNTGKYAELFWEKADGCDEFILVTQFNYPDKTHYLMGWECFPTKGWGGMNPTQSLVDAFEDSEGAPISKSKIYDPTDPFKNRDPRLEVDILHDGEEMYGVTIKVAPLASSGSTGINQHNDATETGYYGQKWLDPSLDPLSDGWNMGKDWVHIRYAEVLLTYAEAKNELQGLDPEAFDAVNQVRRRVGMPELQNTDPSKPTYCATQDDLRQRIRNEWRVEFCLEGGKRMWDIRRWGIAKDVLNAPFEGLKYKIVDNPNDPDKKVDGGKMCILYQGDPIILSGSRYSDNNYLFPVPQSEIDLNPALTQNPGY,glycan array binding signal (z-score),GlcNAc(b1-3)Gal(b1-4)Glc,-0.803
same,glycan array binding signal (z-score),[1],-0.576
same,glycan array binding signal (z-score),[2],0.164
same,glycan array binding signal (z-score),[3],0.612
same,glycan array binding signal (z-score),[4],0.412
same,glycan array binding signal (z-score),[5],0.612
same,glycan array binding signal (z-score),[6],0.918
same,glycan array binding signal (z-score),[7],0.777
same,glycan array binding signal (z-score),[8],-0.324
same,glycan array binding signal (z-score),[9],1.67
same,glycan array binding signal (z-score),[10],-0.045
same,glycan array binding signal (z-score),[11],0.067
same,glycan array binding signal (z-score),[12],-0.224
same,glycan array binding signal (z-score),[13],0.16
same,glycan array binding signal (z-score),[14],0.637
same,glycan array binding signal (z-score),[15],-0.534
same,glycan array binding signal (z-score),[16],0.418
same,glycan array binding signal (z-score),[17],-0.23
same,glycan array binding signal (z-score),[18],-0.135
same,glycan array binding signal (z-score),[19],-0.017
same,glycan array binding signal (z-score),[20],-0.168
same,glycan array binding signal (z-score),GlcNAc(b1-3)GalNAc,-0.557
same,glycan array binding signal (z-score),GlcNAc(b1-3)Man,0.322
same,glycan array binding signal (z-score),[21],1.29
same,glycan array binding signal (z-score),[22],-0.611
same,glycan array binding signal (z-score),[23],-0.256
same,glycan array binding signal (z-score),[24],-0.613
same,glycan array binding signal (z-score),GlcNAc(b1-4)GlcNAc,0.154
same,glycan array binding signal (z-score),[25],-0.884
same,glycan array binding signal (z-score),[26],-0.415
same,glycan array binding signal (z-score),[27],-0.443
same,glycan array binding signal (z-score),[28],-0.422
same,glycan array binding signal (z-score),[29],-0.386
same,glycan array binding signal (z-score),GlcNAc(b1-6)GalNAc,-0.521
same,glycan array binding signal (z-score),[30],-0.057
same,glycan array binding signal (z-score),Kdn(a2-3)Gal(b1-3)GalNAc,-0.579
same,glycan array binding signal (z-score),Kdn(a2-3)Gal(b1-3)GlcNAc,-0.513

# Random excerpt: 2 entries already listed.
binder,measurement,setting,value
PX14343E-bfa-545-24-545 (Bacteroides fragilis) (protein) LDRYPQEELSDGSFWKTPDDANKVVSDLYGYLSTWDQDNDINSDNATMGIKWAAGNVSKGIYDPADQGWSGDYANVRQCNLILSKIDEIPDYPEADKTKALGQVYFFRAYIYFNLIRSFGDVPYIDKPLDLKDMEGITRMPRAEVYEKIMADFDKAIAALPTEWGASDYGRVTKGAAMAMKARAALYYGNWDTAATEAKNVMDLGLYELYDKDNTGKYAELFWEKADGCDEFILVTQFNYPDKTHYLMGWECFPTKGWGGMNPTQSLVDAFEDSEGAPISKSKIYDPTDPFKNRDPRLEVDILHDGEEMYGVTIKVAPLASSGSTGINQHNDATETGYYGQKWLDPSLDPLSDGWNMGKDWVHIRYAEVLLTYAEAKNELQGLDPEAFDAVNQVRRRVGMPELQNTDPSKPTYCATQDDLRQRIRNEWRVEFCLEGGKRMWDIRRWGIAKDVLNAPFEGLKYKIVDNPNDPDKKVDGGKMCILYQGDPIILSGSRYSDNNYLFPVPQSEIDLNPALTQNPGY,glycan array binding signal (z-score),[16],0.418
same,glycan array binding signal (z-score),[11],0.067
